These are yes or no findings as the source states them, for the method shown. Binding seen in cells or lysates may run through a third protein. Binding can be weak; no strength is given. Where a sequence is shown, tags or fusion partners need not be part of it.
B1: 3×FLAG-tagged Pub3 (enzyme, UniProt O14326 1-786)
chain: MEQGAKRVRFYIVAADGLSKRDLFRQPDPFAILTVDGEQTHTTKVIKKSVNPYWNEGFEVTVKPSSVISIRLFDQKKFKKKDQGFLGLVSFRMREVGSFRSNREVSLTRPLKKSSTTNLSVLGNLVLKVAPSKIRAPAGNHSSTTANRTTSTPTTTTARTTRTTPRPTATTNTSNQSTSNSTRNGTSAATSNGTGTGAGTGASHRSSPVTNRQTNNTSALSNSNAHIMSSFEDQYGRLPPGWERRADSLGRTYYVDHNTRTTTWTRPASSTNPVHNTSSDSQRLNHQNRHLPDDSNPSLMQSDSGNDLPFGWEMRYTDTGRPYFVDHNTRTTTWVDPRNPLVRPNGGSSTVGSLMQPQSLSHLGPLPSGWEMRLTNSARVYFVDHNTKTTTWDDPRLPSALDQDVPQYKCDFRRKLIYFRSQPGMRPLPGQCNVKVRRDHIFEDSYAEIMRYSAHDLKKRLMIRFDGEDGLDYGGLSREFFFLLSHKMFDPIYCLFEYSAVDNYTLQINPHSSINPEHLNYFRFIGRVIGLAIFHRRFLDAFFVVSLYKKLLRKKVSLADMESIDAEFYRSLKWVLENDITGILDLTFSVEEDHFGEVRTVELITNGENIEVTEENKKKYVDLVTEWRVSKRVEQQFNAFYSGFVELVSPDLVNVFDERELELLIGGISDVDVEDWKSHTEYRTYIATDPVIKWFWEIIAGWKNEDRSKLLQFATGTSRIPVNGFRDLQGSDGPRKFTIEKAGTPDQLPVAHTCFNRLDLPDYPSKDTLHEKLSLAVENTVGFGNE
B2: 3×FLAG-tagged Pub2 (enzyme, UniProt Q9UTG2 1-671)
chain: MENIRFEVQLTILHVEGLWKNGLLRSLKPYLLISVDDDQFIKTNVASGTLRLSWGFTQKLTVSPQSIILLQLFDEKQKNETSDGFVGLGAAVVNSFLPFNNPKDDYKTRITLRSPSGSYRGSVVCLFKRSKFLPEELPADKSQICTDIIDDASGCAWETRIDEFGHVYYLKSPQLSVISAISHEKLENLTPKQLKEVFSQFLFNNQSKSSLKINLEYKVIKHLLEHYPLALSVRQQVAVEKGPLPAGWEMRLSEDYHVYFVDHSTKTTTWSDPRDNVVASDSVSENTDSIQQINDEYQRKIAYMYDRPEMAVNDAQLQLKVSRATTFEDAYDIISKLSVSDMKKKLLIRFRNEDGLDYGGVSREFFYILSHAIFNPGYSLFEYATDDNYGLQISPLSSVNPDFRSYFRFVGRVMGLAIYHRRYLDVQFVLPFYKRILQKPLCLEDVKDVDEVYYESLKWIKNNDVDESLCLNFSVEENRFGESVTVDLIPNGRNIAVNNQNKMNYLKALTEHKLVTSTEEQFNALKGGLNELIPDSVLQIFNENELDTLLNGKRDIDVQDWKRFTDYRSYTETDDIVIWFWELLSEWSPEKKAKLLQFATGTSRLPLSGFKDMHGSDGPRKFTIEKVGHISQLPKAHTCFNRLDIPPYNSKEELEQKLTIAIQETAGFGTE

What was measured:
[1] = biological target: GST-tagged Cw9a(1-104) PY2*PY3* (S. pombe (natural isolate CBS5557)); test: pull-down; GST pull-down: E. coli lysate with the GST fusion mixed with S. pombe lysate with the 3×FLAG-tagged ubiquitin ligase, 4 °C, glutathione-sepharose beads; 50 mM phosphate pH 7.4, 200 mM NaCl, 10% glycerol, 0.05% NP-40; anti-FLAG blot
[2] = biological target: GST-tagged Cw9a(1-104) PY1* (S. pombe (natural isolate CBS5557)); test: as above
[3] = biological target: GST-tagged Cw9a(1-104) PY3* (S. pombe (natural isolate CBS5557)); test: as above
[4] = biological target: GST-tagged Cw9a(1-104) (S. pombe (natural isolate CBS5557)); test: as above
[5] = biological target: GST-tagged Cw9a(1-104) PY1*PY3* (S. pombe (natural isolate CBS5557)); test: as above
[6] = biological target: GST-tagged Cw9a(24-52) (S. pombe (natural isolate CBS5557)); test: as above
[7] = biological target: GST-tagged Cw9a(1-104) PY1*PY2* (S. pombe (natural isolate CBS5557)); test: as above
[8] = biological target: GST-tagged Cw9a(53-104) (S. pombe (natural isolate CBS5557)); test: as above
[9] = biological target: GST-tagged Cw9a(1-104) PY2* (S. pombe (natural isolate CBS5557)); test: as above
[10] = biological target: GST-tagged Cw9a(1-52) (S. pombe (natural isolate CBS5557)); test: as above
[11] = biological target: GFP-Cw9a(1-52) (S. pombe (natural isolate CBS5557)); test: co-IP; in vivo co-immunoprecipitation in S. pombe (Supplementary Fig. 1h); GFP-Trap agarose beads by the general method

| Binder | binding [1] | binding [2] | binding [3] | binding [4] | binding [5] | binding [6] | binding [7] | binding [8] | binding [9] | binding [10] | binding [11] |
| --- | --- | --- | --- | --- | --- | --- | --- | --- | --- | --- | --- |
| B1 | binds weakly | binds | binds | binds | binds | binds | binds weakly | binds weakly | binds | binds | binds |
| B2 | – | – | – | – | – | – | – | – | – | binds weakly | binds weakly |

— article PMC10721834
